Results are given in words; binding and its absence hold for the method and conditions named. In cells and extracts the contact can be indirect. Some results given as binding are weak or reduced against the parent protein; the word gives no strength.
Molecular target: T1, suppressor of variegation 39H1 (SUV39H1) (human (endogenous in glioma cells)) (UniProt O43463)
T1 sequence: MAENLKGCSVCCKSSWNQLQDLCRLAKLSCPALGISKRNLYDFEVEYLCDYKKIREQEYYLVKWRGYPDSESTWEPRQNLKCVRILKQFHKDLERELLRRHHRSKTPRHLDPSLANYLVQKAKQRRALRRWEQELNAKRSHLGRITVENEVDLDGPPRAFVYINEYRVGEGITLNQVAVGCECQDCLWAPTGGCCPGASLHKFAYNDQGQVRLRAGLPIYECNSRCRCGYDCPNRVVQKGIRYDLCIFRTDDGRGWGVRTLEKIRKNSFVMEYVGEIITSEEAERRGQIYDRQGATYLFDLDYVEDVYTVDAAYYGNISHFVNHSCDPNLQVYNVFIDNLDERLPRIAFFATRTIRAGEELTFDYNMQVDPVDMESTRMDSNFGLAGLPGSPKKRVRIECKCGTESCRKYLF
Assay: co-IP; endogenous proteins in glioma cells; complexes precipitated with protein A/G agarose, western blot with anti-MeCP2 and anti-SUV39H1; done in both directions

By UniProt entry, the sequences of proteins in these tests, tags left out.
UniProt P51608: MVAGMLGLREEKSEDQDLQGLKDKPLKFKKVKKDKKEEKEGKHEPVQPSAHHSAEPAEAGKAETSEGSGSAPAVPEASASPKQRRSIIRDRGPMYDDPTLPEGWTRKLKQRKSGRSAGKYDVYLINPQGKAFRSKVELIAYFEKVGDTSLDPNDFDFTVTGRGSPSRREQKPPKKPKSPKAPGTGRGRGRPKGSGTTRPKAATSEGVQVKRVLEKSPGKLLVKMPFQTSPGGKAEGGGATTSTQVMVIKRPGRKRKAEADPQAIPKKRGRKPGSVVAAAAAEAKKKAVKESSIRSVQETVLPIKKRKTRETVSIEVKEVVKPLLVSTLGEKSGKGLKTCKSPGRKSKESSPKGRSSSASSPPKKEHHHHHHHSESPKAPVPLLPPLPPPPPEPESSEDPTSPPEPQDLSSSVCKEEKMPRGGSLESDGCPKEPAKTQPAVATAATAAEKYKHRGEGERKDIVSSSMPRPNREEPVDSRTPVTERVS

## Methyl CpG-binding protein 2 (MeCP2) (from UniProt P51608 1-486)
  binding: binds

Source: publication PMC6702741
